PubChem BioAssay AID1159596, NIAID, 2016

Test: 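Knock-down of 126 toll-like receptor signalling parts, six siRNAs each, on a TNF reporter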 (primary screen)
Cells: human THP1 B5 monocytic reporter cells made macrophage-like with PMA
Reagent: single siRNA against human genes
Time to read-out: assayed 48 to 72 hours after siRNA transfection; peptidoglycan stimulation lasted 4 hours
Challenge: Staphylococcus aureus peptidoglycan for 4 hours; dose not given
Measurement: 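TNF-alpha promoter firefly/renilla luciferase ratio after 4 h s. aureus peptidoglycan; plate median/MAD scaled, robust z versus negative control wells, mean of replicates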
Scale: TNF reporter z-score: higher = stronger TNF promoter reporter response to peptidoglycan
Rule for the call: In these data the active calls have TNF reporter z-score, replicate mean at about -1.5 or lower, or at about 1.5 or higher
Calls: active = reporter shifted beyond cut (either direction); inactive = reporter near control level
Here is one part, drawn at random, of 756 deposited reagents. 143 of them (19%) count as active. 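Active means the reporter moved past about ±1.5 in either direction; scores are per single siRNA, not per gene; peptidoglycan dose not given.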 Entries without a mark were called inactive. Reagents against one gene are numbered here. Not stated in the record: the amount of reagent.

Gene | reagent | TNF reporter z-score, replicate mean
TOLLIP | 1 | -1.29
TOLLIP | 2 | -0.172
TOLLIP | 3 | 0.0437
TOLLIP | 4 | -5.43 (active)
TOLLIP | 5 | -0.418
TOLLIP | 6 | -1.18
AKT2 | 1 | -1.31
AKT2 | 2 | -0.0852
AKT2 | 3 | -0.861
AKT2 | 4 | -0.78
AKT2 | 5 | 0.923
AKT2 | 6 | -0.0499
IL12A | 1 | 0.0108
IL12A | 2 | -0.542
IL12A | 3 | 0.0278
IL12A | 4 | 0.224
IL12A | 5 | -1.38
IL12A | 6 | -0.516
TAB1 | 1 | -1.18
TAB1 | 2 | -0.538
TAB1 | 3 | 0.00499
TAB1 | 4 | -1.51 (active)
TAB1 | 5 | -0.916
TAB1 | 6 | -1.27
TLR9 | 1 | -1.27
TLR9 | 2 | 0.517
TLR9 | 3 | -0.688
TLR9 | 4 | 0.202
TLR9 | 5 | 0.0654
TLR9 | 6 | 0.968
PTK2B | 1 | 0.0665
PTK2B | 2 | -0.663
PTK2B | 3 | 0.251
PTK2B | 4 | -2.87 (active)
PTK2B | 5 | -0.718
PTK2B | 6 | -0.952

Quoted from the listing for reference:
Gene | reagent | TNF reporter z-score, replicate mean
TOLLIP | 2 | -0.172
TOLLIP | 3 | 0.0437
TOLLIP | 4 | -5.43 (active)
TOLLIP | 5 | -0.418
TOLLIP | 6 | -1.18
AKT2 | 1 | -1.31
AKT2 | 2 | -0.0852
AKT2 | 3 | -0.861
AKT2 | 4 | -0.78
AKT2 | 5 | 0.923
AKT2 | 6 | -0.0499
IL12A | 1 | 0.0108
IL12A | 2 | -0.542

The results go on.
Gene | reagent | TNF reporter z-score, replicate mean
MAPK12 | 1 | -0.226
MAPK12 | 2 | -0.191
MAPK12 | 3 | -0.0814
MAPK12 | 4 | -1.46
MAPK12 | 5 | 0.387
MAPK12 | 6 | -1.27
JUN | 1 | -3.23 (active)
JUN | 2 | -2.1 (active)
JUN | 3 | -0.525
JUN | 4 | -1.45
JUN | 5 | -0.669
JUN | 6 | 0.735
CCL3 | 1 | -2.05 (active)
CCL3 | 2 | 0.164
CCL3 | 3 | -0.0473
CCL3 | 4 | 0.042
CCL3 | 5 | 0.188
CCL3 | 6 | -0.676
RAC1 | 1 | 0.0108
RAC1 | 2 | -0.765
RAC1 | 3 | 0.14
RAC1 | 4 | -0.0718
RAC1 | 5 | 0.12
RAC1 | 6 | -2.72 (active)
TNFAIP3 | 1 | -1.94 (active)
TNFAIP3 | 2 | -0.36
TNFAIP3 | 3 | -3.26 (active)
TNFAIP3 | 4 | -0.767
TNFAIP3 | 5 | 0.27
TNFAIP3 | 6 | -1.59 (active)
IRF9 | 1 | 0.264
IRF9 | 2 | -0.668
IRF9 | 3 | -0.797
IRF9 | 4 | -2.61 (active)
IRF9 | 5 | 0.205
IRF9 | 6 | -0.25
ATF7 | 1 | -2.01 (active)
ATF7 | 2 | -0.429
ATF7 | 3 | -0.78
ATF7 | 4 | -0.33
ATF7 | 5 | -2.06 (active)
ATF7 | 6 | -0.469
